Measured values reported in article PMC11131246 (Fluids and Barriers of the CNS, 2024).

Test: general procedure: Fmoc solid-phase peptide synthesis; Fmoc-Rink-amide ChemMatrix resin; HBTU, HOBt, DIEA, DIPCI (listed as materials)
Details: whole synthesis, HPLC peak integration of UV chromatogram, scale of the general procedure 0.1 mmol

| Substance | final HPLC purity [%] |
| --- | --- |
| CF-APWHLSSQYSRT-amide (carboxyfluorescein N-term, C-amide) | 93.68 |
| CF-EEGRLYMRYYSPTTRRYG-amide | 90.79 |
| CF-HIQLSPFSQSWR-amide | 93.70 |
| CF-KKKKQPPKPKKPKTQEKKKKQPPKPKR-amide | 98.04 |
| CF-KWCFRVCYRGICYRRCR-amide | 87.61 |
| CF-KYKGAIIGNIK-amide | 96.02 |
| CF-KYRSGAITIGY-amide | 94.63 |
| CF-LKTLTETLKELTKTLTEL-amide | 98.50 |
| CF-NRPDSAQFWLHH-amide | 96.68 |
| CF-RPKPQQFFGLM-amide | 95.05 |
| CF-YDEEGGGE-amide | 98.39 |
| CF-YKEATSTFTNITYRGT-amide | 95.32 |
| CF-YTQDFNKFHTFPQTAIGVGAP-amide | 94.18 |
| KWCFRVCYRGICYRRCR-NH2 (cysteine pairing not given here) | 94.63 |
| PEPTIDE1{A.P.W.H.L.S.S.Q.Y.S.R.T.[am]}$$$$V2.0 | 95.66 |
| PEPTIDE1{E.E.G.R.L.Y.M.R.Y.Y.S.P.T.T.R.R.Y.G.[am]}$$$$V2.0 | 97.06 |
| PEPTIDE1{H.I.Q.L.S.P.F.S.Q.S.W.R.[am]}$$$$V2.0 | 94.53 |
| PEPTIDE1{K.K.K.K.Q.P.P.K.P.K.K.P.K.T.Q.E.K.K.K.K.Q.P.P.K.P.K.R.[am]}$$$$V2.0 | 98.57 |
| PEPTIDE1{K.Y.K.G.A.I.I.G.N.I.K.[am]}$$$$V2.0 | 96.54 |
| PEPTIDE1{K.Y.R.S.G.A.I.T.I.G.Y.[am]}$$$$V2.0 | 97.29 |
| PEPTIDE1{L.K.T.L.T.E.T.L.K.E.L.T.K.T.L.T.E.L.[am]}$$$$V2.0 | 95.95 |
| PEPTIDE1{N.R.P.D.S.A.Q.F.W.L.H.H.[am]}$$$$V2.0 | 93.08 |
| PEPTIDE1{R.P.K.P.Q.Q.F.F.G.L.M.[am]}$$$$V2.0 | 95.23 |
| PEPTIDE1{Y.D.E.E.G.G.G.E.[am]}$$$$V2.0 | 95.71 |
| PEPTIDE1{Y.K.E.A.T.S.T.F.T.N.I.T.Y.R.G.T.[am]}$$$$V2.0 | 86.69 |
| YTQDFNKFHTFPQTAIGVGAP-NH2 | 97.46 |

Some peptides are written in HELM: one residue between dots, names in brackets for other building blocks, links after the first $. No end group written: not given here.
